# Assay results

Source: PubChem BioAssay AID912 (NCATS, 2007).

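A cell-based FRET test of anthrax lethal toxin entry, tracked through the 460 nm emission signal; the cell line is not named here. Each compound was tested as a concentration series from about 0.0005 to 40 µM. The number is the fitted AC50 of the 460 nm signal alone; lower values mean a more potent effect. A falling signal goes with compounds filed as inhibitors or cytotoxic, a rising one with activators or fluorescent compounds (inferred from the filed classes).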

Values are in µM. Common to all entries: measured here: 460 nm channel. Part of the compounds only, not a random draw; the main read-out is not listed here. Potencies fitted to partial, single-point or poorly fitting curves are rough. The first word of each remark tells which way the curve ran; it can be opposite to the aim of the assay.

structure	AC50 (µM)	remark
CCCCOC(=O)Sc1nc2ccccc2o1	31.62	falling, single point
ClCc1ccccn1	31.62	falling, partial curve
C[C@@]12C(=O)OC(=O)[C@@]1(C)[C@H]1CC[C@@H]2O1	10	falling, full curve
O=C(NCCN1CCN(c2ccccc2F)CC1)C1c2ccccc2C(=O)N2CCc3ccccc3C12 (stereo not given)	10	rising, single point
Cc1cnc(NC(=O)COc2ccccc2Cl)s1	5.012	rising, single point
CC1(N2CCOCC2)CC2(O)C(=[N+]1[O-])CCc1c2no[n+]1[O-] (stereo not given)	31.62	falling, single point
C=CCNc1nc(N2CCCC2)nc2ccccc12	10	falling, partial curve
O=S(=O)(c1ccc(Br)cc1)N1CCN(c2cc(-c3ccccc3)nc3ncnn23)CC1	0.631	rising, full curve, poor fit
CCCC1(C(=O)OC)C=C2C(=C(C)C(=O)C2C)CN1 (stereo not given)	25.12	falling, single point
O=C(C1CCC(CNc2c(N3CCCCC3)c(=O)c2=O)CC1)N1CCc2ccccc2C1 (stereo not given)	7.943	rising, partial curve
O=C(c1ccccc1)n1nc(-c2ccccc2)nc1NCc1ccco1	5.012	falling, partial curve
COc1ccc(CNc2ncnc3ccc(-c4cccc(NS(C)(=O)=O)c4)cc23)c(OC)c1	2.512	falling, full curve
CC(C)CC(c1nnnn1CC1CCCO1)N1CCN(C2CCCC2)CC1 (stereo not given)	1.259	rising, partial curve
Cc1ccc(-n2nnnc2SCC(=O)Nc2ccccc2N2CCCCC2)cc1C	0.7943	falling, full curve, poor fit
CCOc1ccccc1NC(=O)CSc1ccccc1	25.12	falling, partial curve
COC(=O)CSc1nnc(-c2ccc(OC)cc2OC)o1	15.85	rising, single point
Fc1ccccc1N1CCN(C(c2cccs2)c2nnnn2CCc2ccccc2)CC1 (stereo not given)	10	falling, partial curve
COc1ccc(C(=O)N2CCC3(CCN(C)CC3)CC2)cc1	5.012	rising, single point
COc1ccc(NC(=O)C(F)(OC)C(F)(F)F)c(OC)c1 (stereo not given)	5.012	falling, partial curve
O=C(Nc1ccccc1)c1cccnc1Nc1ccccc1	31.62	falling, single point
CC1CC(C)CN(C(=O)C2CCCN(S(=O)(=O)c3cccc4nonc34)C2)C1 (stereo not given)	5.012	rising, single point
COc1ccc(C(=O)n2nc(C)cc2C)cc1Br	31.62	falling, single point
CCOc1cc(-c2cc(-c3ccc(N)cc3)nc(N)c2C#N)ccc1O	15.85	rising, partial curve
C=CC1=C(C)C2=NC1=CC1=NC(=CC3=NC(=CC4=NC(=C2)C(C)=C4CCC(=O)O)C(CCC(=O)O)=C3C)C(C=C)=C1C.[Zn]	15.85	falling, partial curve
O=C(NC1CCCCC1)N1CCN(Cc2nc3ccccc3c(=O)[nH]2)CC1	0.003981	rising, full curve, poor fit
COc1ccc(-c2nc3cnc(N4CCOCC4)nc3n(Cc3cccc(OC)c3)c2=O)cc1	0.5012	rising, full curve
Nc1c(S(=O)(=O)c2cccs2)c2nc3ccccc3nc2n1Cc1cccs1	3.162	rising, single point
COC(=O)C(CCSC)NC(=O)C(NC(=O)C1CCC(C)CC1)C(C)C (stereo not given)	5.012	rising, single point
CCOc1ccccc1NC(=O)CN1C(=O)COc2ccc(Cl)cc21	1	falling, full curve
CCc1cc2cc(C(=O)N3CCN(Cc4ccccc4)CC3)sc2s1	25.12	falling, partial curve
CCCCCCCNS(=O)(=O)c1cccc2c(Cl)cccc12	25.12	falling, partial curve
COc1ccccc1CNc1ncncc1-c1ccc(C(=O)N(C)C)cc1	3.162	falling, single point
O=C(COC(=O)c1cccc(NC(=O)c2ccco2)c1)c1ccc(Br)cc1	31.62	falling, single point
N#Cc1cc2c(nc1SCC(=O)NCc1ccc3c(c1)OCO3)CCCCC2	0.3162	rising, full curve, poor fit
CCOc1ccc(OCC)c(NC(=O)CN(c2ccc(C)cc2)S(=O)(=O)c2c(C)noc2C)c1	12.59	falling, partial curve
CN(C)c1ccc(C2C=C(c3ccc(Cl)cc3OC(F)F)Nc3ncnn32)cc1 (stereo not given)	5.012	rising, partial curve
CC1CCCN(CCCNC(=O)CCn2nc(-c3ccccc3)ccc2=O)C1 (stereo not given)	0.007943	falling, full curve
CS(=O)(=O)Nc1cccc(-c2nc(NCc3ccccc3)c3ccccc3n2)c1	31.62	falling, single point
CC1=C(CC(=O)O)c2cc(F)ccc2/C1=C\c1ccc(S(C)=O)cc1 (stereo not given)	19.95	rising, partial curve, poor fit
CNC(=O)COC(=O)c1cc(F)c(F)cc1Cl	5.012	rising, full curve
O=C(NCCNC(=O)C(F)(F)F)c1ccncc1	25.12	falling, single point
Nc1cccc2c1C(=O)N(C(=O)c1ccc(S(=O)(=O)N3CCCCCC3)cc1)C2=O	10	rising, partial curve
N[C@H](Cc1cc(I)c(Oc2ccc(O)c(I)c2)c(I)c1)C(=O)O	2.512	falling, partial curve
Cc1cc(O)c(C(C)(C)C)cc1Sc1cc(C(C)(C)C)c(O)cc1C	10	falling, full curve
O=C(COC(=O)CN1C(=O)C2CC=CCC2C1=O)Nc1cc(C(F)(F)F)ccc1N1CCOCC1 (stereo not given)	5.012	rising, partial curve
CCOCC(=O)Nc1cccc(NC(C)=O)c1	0.1	falling, full curve
CC(C)(C)NS(=O)(=O)c1ccc2nc(NC(=O)Cc3cccs3)sc2c1	31.62	falling, single point
CCN1CCN(c2oc(COc3ccc(-c4ccccc4)cc3)nc2C#N)CC1	7.943	rising, partial curve, poor fit
CN1CCc2c(sc3c2C(=O)NC(c2ccc(-c4cccc(Cl)c4)o2)N3)C1 (stereo not given)	10	falling, partial curve
CCNc1ncc2nc(-c3cc(F)cc(F)c3)c(=O)n(C3CC3)c2n1	0.5012	rising, full curve
c1ccc(-c2oc3ncnc(NCCCn4ccnc4)c3c2-c2ccccc2)cc1	31.62	falling, single point
CN1CCN(c2ncc3nc(-c4cc(F)cc(F)c4)c(=O)n(C4CC4)c3n2)CC1	12.59	rising, partial curve
O=C(Cc1cc(=O)oc2cc(O)ccc12)NCC1CCC(C(=O)O)CC1 (stereo not given)	10	rising, partial curve
OC(COc1c(Cl)cc(Cl)cc1Cl)CN1CCCCC1 (stereo not given)	31.62	falling, single point
Cc1nnc(SCC(=O)N(C)Cc2ccccc2)[nH]c1=O	31.62	falling, single point
CCCCC(NC(=O)c1ccc(Cl)cc1)C(=O)O (stereo not given)	0.3981	falling, full curve
O=C(O)/C=C\c1ccc(O)c(O)c1	12.59	falling, single point
Cc1[nH]c2ccccc2c1C(=O)CN1CCSCC1	3.162	falling, full curve, poor fit
COc1ccc(C(c2nnnn2C(C)(C)C)N2CCN(C)CC2)cc1OC (stereo not given)	5.012	rising, single point
COc1ccc(-n2nnnc2SC(C)C(N)=O)cc1 (stereo not given)	12.59	rising, single point
COC(=O)[C@@]1(Cc2ccc(F)cc2)[C@H]2c3cc(C(=O)N(C)C)n(Cc4ccsc4Br)c3C[C@H]2CN1C(=O)c1ccccc1	3.162	rising, full curve
Cc1ccc(OP(=O)(Oc2ccc(C)cc2)N2C=Cc3ccccc3[C@H]2C#N)cc1	1	falling, single point